We go through one compound from patent US20220273678A1 (priority 2020, published 2022).

The assay concerns SARS-CoV-2. As to the kind of experiment: microbe, parasite or virus in culture. The assay is classed as cell-based. The conditions noted are these: Severe acute respiratory syndrome coronavirus 2, Calu-3, 48 h; read-out: IC50 (FIG. 1-i).

With `CCC(CC)COC(=O)[C@H](C)N[P@](=O)(OC[C@H]1O[C@@](C#N)(c2ccc3c(N)ncnn23)[C@H](O)[C@@H]1O)Oc1ccccc1` [remdesivir], the IC50 (commonly the midpoint of a concentration-inhibition curve) was found to be 330 nM.
